Measurements published in patent publication US20260250614A1, “Rapid 3D-Bioprinting of Microfluidic Vascular Tissue Models” (University of Cincinnati, priority 2022, published 2026).
At least one structure is not confirmed: it was looked up by name or label, or the drawing left a doubt.

System: cancer spheroids
Test: Drug treatment of cancer spheroids in the vascular tissue model (GBM-on-chip)
Type: cell-based
Conditions: spheroids co-cultured with endothelial cells and in presence of vascular flow, compared to spheroids cultured in conventional conditions: without endothelial cells and without flow

Cn1nnc2c(C(N)=O)ncn2c1=O [TMZ, temozolomide]
resilience of cancer spheroids to drug treatment: more resilient
